Data as given in patent US20170291948A1.
Results are given in words; binding and its absence hold for the method and conditions named. Some results given as binding are weak or reduced against the parent protein; the word gives no strength.

Chains of the proteins cited; added tags and fusions are not shown. Lines headed by an entry give the natural chain unless they say otherwise; changes in a name come on top. A line that says so, or that is headed by a name, gives the form on record, which may keep a tag or linker.
human NRP1 protein (O14786, form named): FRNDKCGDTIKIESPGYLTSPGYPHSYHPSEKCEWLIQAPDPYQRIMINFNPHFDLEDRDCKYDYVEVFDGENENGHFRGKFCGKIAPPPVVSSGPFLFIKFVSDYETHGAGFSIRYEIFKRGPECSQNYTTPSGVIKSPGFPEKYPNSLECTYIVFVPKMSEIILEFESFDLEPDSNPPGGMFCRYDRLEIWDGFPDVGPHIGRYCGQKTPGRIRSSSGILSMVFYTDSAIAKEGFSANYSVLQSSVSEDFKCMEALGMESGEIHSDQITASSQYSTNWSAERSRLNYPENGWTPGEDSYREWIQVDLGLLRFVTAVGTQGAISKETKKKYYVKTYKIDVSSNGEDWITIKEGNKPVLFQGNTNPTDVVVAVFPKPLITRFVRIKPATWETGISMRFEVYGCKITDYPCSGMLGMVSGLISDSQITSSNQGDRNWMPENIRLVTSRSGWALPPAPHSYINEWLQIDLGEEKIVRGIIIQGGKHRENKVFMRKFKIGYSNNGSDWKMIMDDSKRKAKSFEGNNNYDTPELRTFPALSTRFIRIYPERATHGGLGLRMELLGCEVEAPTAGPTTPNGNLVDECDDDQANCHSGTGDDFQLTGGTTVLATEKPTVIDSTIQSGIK

What was measured:
[1] = biological target: human NRP1 protein (human) (UniProt O14786); test: ELISA and SPR analysis, IgG on human NRP1
[2] = biological target: human NRP1 protein (human) (UniProt O14786); test: specificity analysis against proteins structurally similar to human NRP1 (FIG. 15)

| Binder | binding [1] | binding [2] |
| --- | --- | --- |
| 1A03 anti-NRP1 IgG (antibody, V domains shown) VH: EVQLLESGGGLVQPGGSLRLSCAASGFTFSSYYMSWVRQAPGKGLEWVSAISPGSSNKYYADSVQGRFTISRDNSKNTLYLQMNSLRAEDTAVYYCARRKKSFDYWGQGTLVTVSS VL: QSVLTQPPSASGTPGQRVTISCSGPSSNIGNNDVSWYQQLPGTAPKLLIYSDNNRPSGVPDRFSGSKSGTSASLAISGLRSEDEADYYCGAWVASLSAYVFGGGTKLTVL | binds | binds |
| IRCR-101 (3H10) anti-NRP1 IgG (antibody, V domains shown) VH: EVQLLESGGGLVQPGGSLRLSCAASGFTFSSYYMSWVRQAPGKGLEWVSAISPGSSNKYYADSVKGRFTISRDNSKNTLYLQMNSLRAEDTAVYYCARRKYMFDYWGQGTLVTVSS VL: QSVLTQPPSASGTPGQRVTISCTGSSSNIGNNDVYWYQQLPGTAPKLLIYSDSNRPSGVPDRFSGSKSGTSASLAISGLRSEDEADYYCASWDSSLSGYVFGGGTKLTVL | binds | binds |
